Measured values published in patent US20150087598A1, “TREATING MUC1-EXPRESSING CANCERS WITH HELICASE INHIBITORS” (DANA-FARBER CANCER INSTITUTE, INC., priority 2012, published 2015).
At least one structure is not confirmed: it was looked up by name or label, or the drawing left a doubt.

What was measured:
Assay type in all cases: cell-based, Human
MUC1-C [1] = test: Immunoblot of MUC1-C in growth factor-stimulated MCF-10A cells; details: MCF-10A cells + EGF; CHX 10 ng/ml, U0126 10 μM, LY294002 50 μM, BEZ235 250 or 500 nM, rapamycin 100 nM; silvestrol, CR-1-31-B, CR-1-30-B indicated concentrations 24 h
Protocol: (§1) Human MCF-10A mammary epithelial cells were grown in mammary epithelial growth medium (MEGM, Lonza). Human MCF-7 and MDA-MB-468 breast cancer cells were cultured in Dulbecco's modified Eagle's medium with 10% heat-inactivated fetal bovine serum (FBS), 100 U/ml penicillin, 100 μg/ml streptomycin and 2 mM L-glutamine. Human BT-549 cells were maintained in RPMI-1640 medium (ATCC) with 10% FBS and 0.023 IU/ml insulin. Cells were treated with EGF (Sigma), heregulin beta 1 (HRG; Neomarkers), cycloheximide (CHX, Calbiochem), U0126 (Calbiochem), LY294002 (Caymam Chemical Company), BEZ-235 (Selleckchem) and rapamycin Cell Signaling Technology). In certain experiments, MCF-10A cells were serum-starved overnight, and inhibitors were added 2.5 h prior to EGF or HRG treatment.
(§2) Lysates from subconfluent cells were immunoblotted with anti-MUC1-C(AbS; Neomarkers), anti-β-actin (Sigma), anti-p-AKT, anti-AKT, anti-p-ERK1/2, anti-ERK1/2, anti-p-S6K1, anti-S6K1, anti-PCDC4, anti-eIF4E, eIF4A (Cell Signaling Technology) and anti-EGFR (Santa Cruz Technology) Immune complexes were detected with horseradish peroxidase-conjugated secondary antibodies and enhanced chemiluminescence (Amersham Biosciences). Intensity of certain signals was determined by densitometric scanning.

MUC1-C [2] = test: Immunoblot of MUC1-C in MCF-7 breast cancer cells; details: MCF-7 cells, LY294002, time course
Protocol: as §1, §2

MUC1 mRNA = MUC1 mRNA levels in MCF-7 cells; details: LY294002, data not shown
p-AKT = test: Immunoblot of p-AKT in MCF-7 cells; details: LY294002

Row | Structure (SMILES) | EGF-induced increase in MUC1-C abundance (MUC1-C [1]) | MUC1-C abundance (MUC1-C [2]) | MUC1 mRNA levels (MUC1 mRNA) | p-AKT (p-AKT)
1 | CO[C@H]1C[C@@H]2CC[C@@H](C)[C@@](O)(O2)C(=O)C(=O)N2CCCC[C@H]2C(=O)O[C@H]([C@H](C)C[C@@H]2CC[C@@H](O)[C@H](OC)C2)CC(=O)[C@H](C)/C=C(\C)[C@@H](O)[C@@H](OC)C(=O)[C@H](C)C[C@H](C)/C=C/C=C/C=C/1C [rapamycin] | block in the induction |  |  | 
2 | O=c1cc(N2CCOCC2)oc2c(-c3ccccc3)cccc12 [LY294002] | blocked | progressive decreases | absence of a detectable effect | inhibition
